Among all 410,000 compounds or so, about 18,000 (4.4%) were called active. This list was built around the results that the source calls inconclusive (neither active nor inactive); the mix of calls is not that of the screen. Cut-off read from the data, not from the text of the source: active = activity change below about -60%; inconclusive = no clear call, values can overlap the other calls; inactive = above about -39%. A structure can be active in one record and inactive in another.
Test: qHTS Assay for inhibitors of the human cytomegalovirus (HCMV)
Details: HFF cells, HCMV-luciferase reporter, 72 h; at 57.5 µM; stronger effect = lower value
Summary of the method: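 Steps: HFFs plated, 16 h 37C; compounds added; HCMV-luciferase added to MOI 1 PFU/cell; 72 h 37C; OneGlo reagent, 5 min room temperature; luminescence read, normalized to controls.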
% is set by controls: 0 for no effect and ±100 for the full control effect.

Compound	activity change, negative = inhibition
CCOc1ccccc1N1CCN(C(=O)c2cc3ccccc3cc2OC)CC1	inconclusive: -41.6%
Nc1ccc(C(=O)N/N=C\c2cc(N=Nc3cccc4ccccc34)ccc2O)cc1	active: -102%
CC(C)(C)c1ccc(C(=O)OCCN2CCCCC2)cc1	inconclusive: -48.6%
CC(C)(C)S(=O)(=O)N1Cc2ccc(CO)cc2[C@H]1CCO	inactive: -1.28%
COc1cc(/C=C2/CCc3ccccc3C2=O)cc(OC)c1OC	inconclusive: -42.8%
CCSc1oc(-c2ccco2)nc1S(=O)(=O)c1ccc(C)cc1	inconclusive: -59.6%
O=C(NCC(c1cccs1)S(=O)(=O)c1cccs1)c1c(F)cccc1F (centres undefined)	inactive: 9.9%
CN1C(=O)C(C)(C)c2cc(S(=O)(=O)N3CCC(C(=O)Nc4ccc(Cl)cc4)CC3)ccc21	inconclusive: -51.4%
CC1Cn2c(C(=O)NCc3ccccc3Cl)cc3cccc(c32)S1 (centres undefined)	inconclusive: 0%
Cc1c(C(=O)N2CCC(n3nccc3NC(=O)C3CC3)CC2)[nH]c2ccc(Cl)cc12	inactive: -27%
Cc1cccc(NC(=O)c2cc3c(=O)n(Cc4cccnc4)ccc3nc2C)c1	inactive: -2.51%
Cc1ccc(/C=N/NC(=O)c2ccncc2)s1	inconclusive: -46.4%
COc1ccc(OC)c(NC(=O)CCN2CCN(CCO)CC2)c1	inactive: 30.5%
CCN(CCCNC(=O)Cn1ncc2c([nH]c3ccc(C)cc32)c1=O)c1ccccc1	inconclusive: -42.2%
CCOCCCNC(=O)Cc1ccc(Br)cc1	inconclusive: -52%
O=C(NN=Cc1cccc(O)c1O)c1ccccc1	active: -94.2%
CCCOc1ccc(CC2CCC(=O)NC2=O)cc1 (centres undefined)	active: -69.4%
CC1=NN(c2ccccc2)C(=O)C1C=Nc1ccccc1O (centres undefined)	inactive: 0%
CCOC(=O)Cn1c(CN2CCN(C(=O)c3ccco3)CC2)nc2c1c(=O)n(C)c(=O)n2C	inconclusive: -49.3%
CCCCNC(=O)c1ccc(CNc2c(N3CCC(C(=O)OCC)CC3)c(=O)c2=O)cc1	active: -61.2%
FC(F)(F)c1cccc(Nc2c3c(nc4ccc(Cl)cc24)CCC3)c1	active: -76.2%
COC(=O)c1ccc(NC(=O)CN2C(=O)CC(C)S(=O)(=O)c3ccccc32)cc1 (centres undefined)	inactive: -6.87%
COc1cccc(/C=C/c2nc(C#N)c(N3CCN(C)CC3)o2)c1	inactive: -3.19%

Compound	activity change, negative = inhibition
COc1ccccc1NC(=O)CSc1nc2sc3c(c2c(=O)n1-c1ccccc1)CCN(C)C3	inconclusive: 0%
Cc1nn(CC(=O)NC2CC2)c(=O)c2cc3cc(F)ccc3n12	inactive: 10.9%
CCN(CC(=O)Nc1ccc(NC(C)=O)cc1)C(=O)Cc1ccc(S(=O)(=O)N2CCOCC2)s1	inactive: -4.79%
COc1ccc(CNC(=O)C(=O)NCC(c2ccco2)S(=O)(=O)c2ccc(Cl)cc2)cc1 (centres undefined)	inactive: 3.46%
CCC(=O)N1CCC1(C)C(=O)Nc1cc(OC)ccc1OC (centres undefined)	inactive: 17.5%
CC(C(=O)Nc1ccc(F)cc1Cl)N(C)CCOc1ccccc1 (centres undefined)	active: -61.3%
COc1ccc(CNC(=O)C2CCN(C(=O)c3sccc3-n3cccc3)CC2)cc1	inconclusive: -40.1%
O=C(Nc1cccc2ncccc12)c1cc([N+](=O)[O-])ccc1Cl	active: -87.9%
COc1ccc(C(=O)Nc2ccc(O)c3c(=O)cc(-c4cccc(Cl)c4)oc23)cc1	inconclusive: -54.3%
Cc1ccc(C=O)c([B-](F)(F)F)c1	inconclusive: -46.9%
COc1ccc(CCNC(=O)/C=C/c2ccc(OC)c(S(=O)(=O)N3CCOCC3)c2)cc1	inconclusive: -47.1%
C=CCn1c(SCc2cc([N+](=O)[O-])cc3c2OCOC3)nc2cc(C(=O)O)ccc2c1=O	inconclusive: -42.6%
Cc1sc2ncnc(N(C)CCc3ccccn3)c2c1C	inconclusive: -42.1%
Nc1ccn(C2OC(CCl)C(O)C2O)c(=O)n1 (centres undefined)	active: -60.7%
CC(NC(=O)CN(C)Cc1cccc(F)c1)c1ccccc1 (centres undefined)	inconclusive: -44%
O=C1CCC2c3[nH]c4ccccc4c3CCN12 (centres undefined)	inactive: 25.8%
O=C(c1ccc(OC2CCN(Cc3ccccc3O)CC2)cc1)N1CCCCC1	inconclusive: -48.9%
Cc1ccc(-c2csc(NC(=O)c3ccc(S(=O)(=O)N4CCc5ccccc54)cc3)n2)cc1	inconclusive: -55.4%
Cc1ccc2nc(Cl)c(/C=N/Nc3nc(C)cc(C)n3)c(=O)n2c1	inconclusive: -44.4%
Cc1ccc(/C=C/c2nc3ccccc3s2)s1	inconclusive: -43.1%
COC(=O)C1=C(C)N(C)C(=S)N(C)C1c1cccc(Br)c1 (centres undefined)	inconclusive: -40.7%
CN(C)C=Nc1ncc2c3ccccc3n(CCN(C)C)c2c1C#N	active: -97.8%
Cc1ccc(C(=O)Nc2ccccc2N2CCCC2)cc1	inactive: -11.5%

Quoted at random: 3 compounds from above, in no set order.
Compound	activity change, negative = inhibition
CN(C)C=Nc1ncc2c3ccccc3n(CCN(C)C)c2c1C#N	active: -97.8%
COc1ccccc1NC(=O)CSc1nc2sc3c(c2c(=O)n1-c1ccccc1)CCN(C)C3	inconclusive: 0%
Nc1ccn(C2OC(CCl)C(O)C2O)c(=O)n1 (centres undefined)	active: -60.7%

(more compounds)

Compound	activity change, negative = inhibition
COc1ccccc1NC(=O)N1CCN(c2ccc3nnc(-c4ccc(F)cc4)n3n2)CC1	active: -76.5%
CCOc1ccc(NC(=O)Cn2nc(Cc3cccnc3)c3ccccc3c2=O)cc1	inconclusive: -48.7%
O=S(=O)(c1ccc(SCCOc2ccc(F)cc2)nc1)N1CCCC1	inconclusive: -42.8%
COCCCNC(=S)N/N=C/c1ccc(OC)cc1	inconclusive: -54.8%
CCc1c(C)nc2ncnn2c1NCCc1ccc(OC)c(OC)c1	active: -72.7%
CC(NC=C1C(=O)OC(C)(C)OC1=O)C(=O)O (centres undefined)	inactive: 66%
CC(C(=O)Nc1ccc2c(c1)OCCO2)N1Cc2ccccc2C1=O (centres undefined)	inconclusive: -57.4%
Cc1cc2c(C)cc(=O)[nH]c2cc1NC(=O)CCl	inactive: -24.9%
O=C(c1ccccc1)c1ccc(C(=O)N2CCN(c3ccc(O)cc3)CC2)cc1	active: -78%
Cc1cc(C(=O)NCCCN2CCOCC2)n(-c2ccccc2)n1	inconclusive: -46%
O=C(N[C@H]1C/C=C\C[C@@H](CC(=O)N(CCO)Cc2ccccc2)C(=O)NC[C@H](c2ccccc2)OC1=O)OCC1c2ccccc2-c2ccccc21	inconclusive: -46.6%
O=C(Nc1ccc(N2C(=O)c3cccc4cccc(c34)C2=O)cc1)c1ccc(N2CCCCC2)c([N+](=O)[O-])c1	inconclusive: -51.4%
Cc1ccc2c(=O)cc(C(=O)Nc3c(C)cccc3C)oc2c1	inactive: -12.9%
O=C(NCc1ccccc1)c1cc(C2COCCN2C(=O)c2ccc3c(c2)CCO3)on1 (centres undefined)	inactive: -37.9%
COCCn1c(C)cc(C(=O)COC(=O)CNC(=O)c2ccccc2)c1C	inactive: -34.6%
COc1cccc2cc(-c3nc4sc5c(c4c(=O)[nH]3)CCC(C(C)(C)C)C5)c(=O)oc12 (centres undefined)	inactive: -10.3%
CN(C)S(=O)(=O)c1cccc(NC(=O)CNc2cccc(S(=O)(=O)N3CCCCC3)c2)c1	active: -80.9%
CCc1c(C)nc2c(Br)cccc2c1SCCC#N	inconclusive: -54.1%
CCOc1ccc(Oc2ccc(NS(=O)(=O)c3ccc(CCC(=O)O)cc3)cc2)cc1	inactive: -23.8%
c1ccc(N=C2SCCCS2)cc1	inconclusive: -43.1%
Cc1c(Cl)cccc1NC(=O)CSc1nnc(CCNC(=O)OC(C)(C)C)o1	inconclusive: -48%
CCCOc1ccc(N2C(=O)CC(SCCc3nc4ccccc4[nH]3)C2=O)cc1 (centres undefined)	inactive: -9.89%
c1ccc(CCn2nnnc2C(c2cccnc2)N2CCN(c3nc4ccccc4s3)CC2)cc1 (centres undefined)	inconclusive: -53.2%

Compound	activity change, negative = inhibition
CCOC(=O)c1c(C)n(-c2ccc(C)cc2)c2ccc(OCC(O)CNCCCO)cc12 (centres undefined)	active: -75.3%
Cc1cccc(NC(=O)CSc2nc(C3CC3)nc3ccccc23)c1	inconclusive: -50.6%
Cc1ccc(Oc2nc(C(F)(F)F)nc3ccccc23)cc1	active: -69.1%
CCSc1nc(-c2ccc(OC)cc2)nc2c1Cc1c(CO)cnc(C)c1O2	inconclusive: -49.2%
CC(C)(C)c1cc(NC(=O)CCl)n(-c2ccccc2)n1	inconclusive: -50.8%
Cc1nn(C)c(Sc2ccccc2N)c1[N+](=O)[O-]	inconclusive: -42%
CCOc1cc(CNCC(C)C)cc(Cl)c1OCc1ccccc1	inconclusive: -46.6%
Cc1cc(C(=O)CSc2nc(N)cc(N)n2)c(C)n1-c1cccc(F)c1	inconclusive: -48.1%
Cc1nc(CNS(=O)(=O)c2cc([N+](=O)[O-])ccc2C)cs1	inactive: 17.1%
O=[N+]([O-])/C=C/c1cn(Cc2ccccc2)c2ccccc12	active: -104%
CSc1nc2ccccc2n1CC(=O)Nc1ccc(C)c(C)c1	inconclusive: -47.8%
O=C(COC(=O)c1ccccn1)Nc1ccc2c(c1)OCO2	inactive: -34.5%
O=c1c2ccccc2nc(SCc2cn3ccsc3n2)n1-c1ccccc1F	inconclusive: -56.2%
c1ccc(-c2cnc(C3CCCCC3)o2)cc1	inconclusive: -48.8%
C/C=C/C1=CC(=O)C[C@H](c2ccc(OC)c(OC)c2)C1	inactive: 11.7%
Cc1ccc(C(=O)c2oc3ccccc3c2NC(=O)COc2ccc(Cl)c(C)c2)cc1	inactive: -4.55%
COc1ccc(OC)c2sc(NC(=O)c3ccc(Br)s3)nc12	inactive: -23.3%
Cc1ccc(C)c(N2CCN(C(=S)Nc3ccc4nc(N5CCN(C)CC5)cc(C)c4c3)CC2)c1	inconclusive: -45.5%
CCOC(=O)c1cc2c(ccn2C)n1CC(=O)Nc1ccc(F)cc1	inactive: 11.4%
Cc1cccc(CCNC(=O)c2cccc(NC3=NC4CS(=O)(=O)CC4S3)c2)c1 (centres undefined)	inactive: 2.4%

Source: PubChem BioAssay AID1259415 (National Center for Advancing Translational Sciences (NCATS), 2018)
